Measurements from patent US8642764B1, “Julolidine conjugates and methods for their preparation and use” (Jawaharlal Nehru Centre for Advanced Scientific Research, priority 2012, dated 2014).
Some results were stated once for a whole list of compounds, not compound by compound.

Experiment: Specificity of Schiff-base compounds towards Cu^2+ ions (absorption spectra)
Assay type: physicochemical
Settings: presence of Cu^2+ ions
Protocol: The specificity of bi-julolidine Schiff-base compounds, compound 1 and compound 2, in detecting Cu^2+ ions were investigated by monitoring the absorption spectral behavior of the compounds. The experiment was also performed using other Schiff-base compounds that were prepared by condensing different salicylaldehyde derivatives with carbohydrazide and thiocarbohydrazide (compounds 3-8, shown below).

SMILES	optical response
O=C(N/N=C/c1cc([N+](=O)[O-])ccc1O)N/N=C/c1cc([N+](=O)[O-])ccc1O [compound 7, reference compound]	failed to exhibit any characteristic optical response
O=[N+]([O-])c1ccc(O)c(/C=N/NC(=S)N/N=C/c2cc([N+](=O)[O-])ccc2O)c1 [compound 8, reference compound]	failed to exhibit any characteristic optical response
